Source: PubChem BioAssay AID330 (DTP/NCI, 2004)
The list is a part of this screen's results and no random one: it gathers tests that were run many times, whatever their T/C, doses with no T/C, and many T/C values between a quarter and a half above the control. Further doses and runs are listed elsewhere. T/C is the treated group as % of the vehicle group. Some doses have a count of surviving animals in place of a T/C: the source files T/C as zero there, which appears to mark a toxic dose or a test without result, not a measured value. Some survivor counts are full or nearly so, which does not show that the dose was tolerated: survival well below the control is almost never listed, so the zero probably covers shortened survival too. Counts of survivors are from the toxicity check (mostly the fifth day) where no day follows; animals may have died later. Schedule codes are those of the source, taken here to give the interval after Q, in days (D) or hours (H), and the number of doses after X. Some entries hold several experiments; their values stand side by side, smallest first. Where survival is the endpoint, the PubChem record calls one and a half times the control and up active, and a quarter to a half above the control has no call in these data; cut-offs in other NCI protocols can differ. Some T/C values carry the count of animals alive at the toxicity check (mostly the fifth day); where none is given, no animal had died by that day.

Test system: P388 leukemia ip, CD2F1 mice, survival T/C
Test: NCI In Vivo Anticancer Drug Screen. Data for tumor model P388 Leukemia (intraperitoneal) in CD2F1 (CDF1) mice
Conditions: T/C endpoint: median survival time, higher T/C = longer survival
[1] = dose: 50.0 mg/kg/injection, schedule: Q01DX009 (ip), vehicle: saline with Tween-80
[2] = dose: 200.0 mg/kg/injection, schedule: Q01DX009 (ip), vehicle: saline with Tween-80
[3] = dose: 100.0 mg/kg/injection, schedule: Q01DX009 (ip), vehicle: saline with Tween-80
[4] = dose: 400.0 mg/kg/injection, schedule: Q01DX009 (ip), vehicle: saline with Tween-80
[5] = dose: 50.0 mg/kg/injection, schedule: Q01DX005 (ip), vehicle: Klucel (hydroxypropylcellulose) (HPC)
[6] = dose: 100.0 mg/kg/injection, schedule: Q01DX005 (ip), vehicle: Klucel (hydroxypropylcellulose) (HPC)
[7] = dose: 100.0 mg/kg/injection, schedule: Q01DX005 (ip), vehicle: saline
[8] = dose: 200.0 mg/kg/injection, schedule: Q01DX005 (ip), vehicle: saline
[9] = dose: 400.0 mg/kg/injection, schedule: Q04DX003 (ip), vehicle: saline with Tween-80
[10] = dose: 12.5 mg/kg/injection, schedule: Q01DX009 (ip), vehicle: saline with Tween-80
[11] = dose: 200.0 mg/kg/injection, schedule: Q01DX009 (ip), vehicle: Klucel (hydroxypropylcellulose) (HPC)
[12] = dose: 25.0 mg/kg/injection, schedule: Q04DX003 (ip), vehicle: saline with Tween-80

NCC(=O)O
survivor count (dose: 30.0 mg/kg/injection, schedule: Q01DX005 (ip), vehicle: saline): 3 of 6 | survivor count (dose: 60.0 mg/kg/injection, schedule: Q01DX005 (ip), vehicle: saline): 0 of 6 | survivor count (dose: 120.0 mg/kg/injection, schedule: Q01DX005 (ip), vehicle: saline): 0 of 6 | survivor count (dose: 240.0 mg/kg/injection, schedule: Q01DX005 (ip), vehicle: saline): 0 of 6

C=CC(=O)NCCSSCCNC(=O)C=C
survivor count [1]: 5 of 6 | survivor count [2]: 5 of 6

C/C(C#N)=C/c1ccccc1
survivor count [2]: 3 of 6

c1cnc2ncncc2n1
T/C [3]: 129 % of control | T/C [2]: 138 % of control [5 of 6 alive] | survivor count [4]: 0 of 6

CN=C(c1ccc(NC(=O)c2ccc(C(=O)Nc3ccc(C(=NC)N(C)C4CCCCC4)cc3)cc2)cc1)N(C)C1CCCCC1
survivor count (dose: 6.25 mg/kg/injection, schedule: Q01DX005 (ip), vehicle: Klucel (hydroxypropylcellulose) (HPC)): 0 of 6 | survivor count (dose: 12.5 mg/kg/injection, schedule: Q01DX005 (ip), vehicle: Klucel (hydroxypropylcellulose) (HPC)): 0 of 6 | survivor count (dose: 25.0 mg/kg/injection, schedule: Q01DX005 (ip), vehicle: Klucel (hydroxypropylcellulose) (HPC)): 0 of 6 | survivor count [5]: 0 of 6 | survivor count [6]: 0 of 6 | survivor count (dose: 200.0 mg/kg/injection, schedule: Q01DX005 (ip), vehicle: Klucel (hydroxypropylcellulose) (HPC)): 0 of 6

Cc1cccc(NCc2ccccn2)n1
survivor count (dose: 200.0 mg/kg/injection, schedule: Q01DX005 (ip), vehicle: saline with Tween-80): 1 of 6

Cc1ccc(SSCCN)cc1
survivor count [7]: 3 of 5 | survivor count [8]: 0 of 5

CCCCCCCCCCCCC1=C(O)C(=O)C=C(O)C1=O
survivor count [7]: 0 of 6 | survivor count (dose: 100.0 mg/kg/injection, schedule: Q01DX005 (ip), vehicle: suspension in saline): 0 of 6 | survivor count [8]: 0 of 6

Nc1cc(S(=O)(=O)F)ccc1Cl
survivor count [9]: 4 of 6

CC(NC(=O)c1cccc2c1Oc1ccccc1S2)C(=O)O (stereo not drawn)
survivor count (dose: 100.0 mg/kg/injection, schedule: Q04DX002 (ip), vehicle: saline with Tween-80): 6 of 6 | survivor count (dose: 400.0 mg/kg/injection, schedule: Q04DX002 (ip), vehicle: saline with Tween-80): 0 of 6

COc1cc(O)c(O)c(C(C)(C)C)c1
survivor count (dose: 240.0 mg/kg/injection, schedule: Q01DX005 (ip), vehicle: saline with Tween-80): 6 of 6

O=C1N/C(=N\c2nc3ccccc3s2)c2ccccc21
survivor count [10]: 6 of 6 | survivor count [1]: 6 of 6

CC(=O)Oc1ccccc1C(=O)OC1CC(C)CCC1C(C)C (stereo not drawn)
survivor count [6]: 6 of 6

N#CSc1ccc2nc(NC(NC=O)C(Cl)(Cl)Cl)sc2c1 (stereo not drawn)
survivor count (dose: 50.0 mg/kg/injection, schedule: Q01DX009 (ip), vehicle: Klucel (hydroxypropylcellulose) (HPC)): 6 of 6 | survivor count (dose: 100.0 mg/kg/injection, schedule: Q01DX009 (ip), vehicle: Klucel (hydroxypropylcellulose) (HPC)): 6 of 6 | survivor count [11]: 0 of 6

CN1C2CCC1CC(OC(=O)/C=C/C(=O)OC1CC3CCC(C1)N3C)C2 (stereo not drawn)
survivor count (dose: 240.0 mg/kg/injection, schedule: Q01DX005 (ip), vehicle: suspension in saline): 5 of 6

COc1cccc(CC#N)c1O
survivor count [11]: 2 of 6

CCOCC(=O)O
survivor count (dose: 400.0 mg/kg/injection, schedule: Q01DX009 (ip), vehicle: saline): 0 of 6

CCCCCCCCCCCCCCCCCC[N+]1(CCCC)CCOCC1
survivor count [3]: 5 of 6 | survivor count [2]: 4 of 6

COc1ccc(CN2CCC[S+]2C)cc1 (stereo not drawn)
survivor count [7]: 0 of 5 | survivor count [8]: 0 of 5

C=CCNc1ccc(C)cc1
T/C (dose: 75.0 mg/kg/injection, schedule: Q01DX009 (ip), vehicle: saline with Tween-80): 141 % of control

C=CN=NNc1ccc(C#N)cc1
survivor count [9]: 0 of 6

COc1cc2c(cc1OC)[C@@H](CO)[C@H]1c3cc4c(cc3CCN1C2)OCO4
T/C (dose: 400.0 mg/kg/injection, schedule: Q04DX003 (ip), vehicle: distilled water + Tween-80): 126 and 129 % of control

COC1=C(C)C(=O)c2c(c(COC(N)=O)c3n2CC2C3N2C)C1=O (stereo not drawn)
T/C (dose: 3.13 mg/kg/injection, schedule: Q01DX009 (ip), vehicle: saline with Tween-80): 139 % of control | survivor count (dose: 6.25 mg/kg/injection, schedule: Q01DX009 (ip), vehicle: saline with Tween-80): 4 of 6 | survivor count [10]: 1 of 6 | survivor count [12]: 6 of 6

COC(=O)c1[nH]c(=O)[nH]c(=O)c1F
T/C (dose: 2.0 mg/kg/injection, schedule: Q01DX009 (ip), vehicle: saline with Tween-80): 136 % of control | T/C (dose: 4.0 mg/kg/injection, schedule: Q01DX009 (ip), vehicle: saline with Tween-80): 145 % of control | T/C (dose: 33.0 mg/kg/injection, schedule: Q04DX003 (ip), vehicle: saline with Tween-80): 130 % of control | T/C (dose: 75.0 mg/kg/injection, schedule: Q04DX003 (ip), vehicle: saline with Tween-80): 130 % of control

COc1ccc2[nH]c3c(C)c4ccn5c(=O)c6ccccc6cc5c4c(C)c3c2c1
survivor count (dose: 1.56 mg/kg/injection, schedule: Q04DX003 (ip), vehicle: distilled water + Tween-80): 6 of 6 | survivor count (dose: 3.13 mg/kg/injection, schedule: Q04DX003 (ip), vehicle: distilled water + Tween-80): 6 of 6 | survivor count (dose: 6.25 mg/kg/injection, schedule: Q04DX003 (ip), vehicle: distilled water + Tween-80): 6 of 6 | survivor count (dose: 12.5 mg/kg/injection, schedule: Q04DX003 (ip), vehicle: distilled water + Tween-80): 6 of 6 | survivor count (dose: 25.0 mg/kg/injection, schedule: Q04DX003 (ip), vehicle: distilled water + Tween-80): 6 of 6 | survivor count (dose: 50.0 mg/kg/injection, schedule: Q04DX003 (ip), vehicle: distilled water + Tween-80): 6 of 6 | survivor count (dose: 100.0 mg/kg/injection, schedule: Q04DX003 (ip), vehicle: distilled water + Tween-80): 6 of 6

CN(C)CCNC(c1ccccc1)C(O)c1ccccc1 (stereo not drawn)
survivor count [11]: 5 of 6

O=C1C=CC(=O)C=C1
survivor count (dose: 12.5 mg/kg/injection, schedule: Q04DX003 (ip), vehicle: saline with Tween-80): 0 of 3 and 3 of 6 | survivor count [12]: 0 of 3 | survivor count (dose: 50.0 mg/kg/injection, schedule: Q04DX003 (ip), vehicle: saline with Tween-80): 0 of 3 | survivor count (dose: 100.0 mg/kg/injection, schedule: Q04DX003 (ip), vehicle: saline with Tween-80): 0 of 3 | survivor count (dose: 200.0 mg/kg/injection, schedule: Q04DX003 (ip), vehicle: saline with Tween-80): 0 of 3

COc1cccc2c1C(=O)c1c(O)c3c(c(O)c1C2=O)C[C@@](O)(C(=O)CO)C[C@@H]3OC1CC(NC(C)=O)C(O)C(C)O1 (stereo partly drawn)
T/C (dose: 3.13 mg/kg/injection, schedule: Q01DX009 (ip), vehicle: water): 136 % of control | T/C (dose: 6.25 mg/kg/injection, schedule: Q01DX009 (ip), vehicle: water): 129 and 142 % of control | T/C (dose: 12.5 mg/kg/injection, schedule: Q01DX009 (ip), vehicle: water): 140 % of control | T/C (dose: 25.0 mg/kg/injection, schedule: Q01DX009 (ip), vehicle: water): 144 % of control | survivor count (dose: 400.0 mg/kg/injection, schedule: Q01DX009 (ip), vehicle: other): 6 of 6

CSC(=O)NC(=Nc1ccccc1)NC(=O)c1ccccc1
survivor count [5]: 6 of 6 | survivor count [6]: 5 of 6

O=C(O)/C=C/c1ccc([N+](=O)[O-])cc1
survivor count [4]: 3 of 3

CC(=O)[O][Hg][c]1s[c]([Hg][O]C(C)=O)[c]([Hg][O]C(C)=O)[c]1[Hg][O]C(C)=O
T/C (dose: 1.5 mg/kg/injection, schedule: Q01DX009 (ip), vehicle: saline with Tween-80): 130 % of control | T/C (dose: 6.0 mg/kg/injection, schedule: Q01DX009 (ip), vehicle: saline with Tween-80): 145 % of control
